# Experimental data taken from PubChem BioAssay AID504834 (National Center for Advancing Translational Sciences (NCATS), 2011).
# Out of some 320,000 compounds screened, about 22,000 (6.9%) were called active. The shares of active, inactive and inconclusive entries below differ from those in the screen. Calls follow the shape of the dose curve; as a rule, active = well fitted inhibition curve with a large enough effect; inconclusive = small, poorly fitted or top-dose-only effect, or another doubt; inactive = no such curve, though single readings can be large or run the other way. Potencies of inconclusive entries are doubtful fits and often do not repeat.
# Assay: Primary qHTS for delayed death inhibitors of the malarial parasite plastid, 96 hour incubation
# Details: P. falciparum luciferase reporter growth; series mostly up to 28.7 µM
# Procedure, shortened: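 Readout is luminescence from an integrated firefly luciferase in P. falciparum. Red cells, 2% hematocrit and 0.05% parasitemia final, were cultured with compound through two parasite generations (96 hours) at 37 C, 5% CO2.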
# % is scaled to controls: 0 for no effect and ±100 for the full control effect; potency is read from the fitted curve at half-maximal effect.
SMILES,Potency,"activity change, negative = inhibition"
O=C(CC1SC(=O)N(c2ccccc2)C1=O)Nc1ccc(Br)cc1 (centres undefined),inactive,
COCCCN1C(=O)C(=O)/C(=C(/O)c2ccc(S(=O)(=O)N3CCCCC3)cc2)C1c1cccc(OC)c1 (centres undefined),"inconclusive: 9.28 µM [inhibitor, partial curve, poor fit]",
COc1ccccc1CNC(=O)COC(=O)C1CCN(S(=O)(=O)c2ccc(C)c(C)c2)CC1,inactive,
COc1ccc(NS(=O)(=O)c2ccc3c(c2)NC(=O)C(C)S3)cc1 (centres undefined),"inconclusive: 18.5 µM [inhibitor, single point]",
Cc1ccc2c(CN3CCN(CCO)CC3)cc(=O)oc2c1,inactive,
CC(C)(C)c1ccc(C(=O)NCCC(=O)Nc2cc(Cl)ccc2N2CCOCC2)cc1,"inconclusive: 18.5 µM [inhibitor, single point]",
O=C(CCC(=O)c1ccc(Oc2ccccc2)cc1)Nc1cccc(Cl)c1,active: 5.86 µM,
COc1cccc(NC(=O)C2CCN(S(=O)(=O)c3ccc4c(c3)CC(C)N4C(C)=O)CC2)c1 (centres undefined),"inconclusive: 14.7 µM [inhibitor, single point]",
O=C(Nc1ccccn1)c1cc(-c2ccc(Cl)s2)nc2ccccc12,"inconclusive: 9.28 µM [inhibitor, single point]",
Cc1ccc(C)c(-c2csc(N)c2C(=O)OC(C)C)c1,"inconclusive: 18.5 µM [inhibitor, single point]",
COc1cc(NS(=O)(=O)c2ccc3[nH]c(=O)[nH]c3c2)cc(OC)c1,"inconclusive: 13.1 µM [inhibitor, single point]",
CCCCN(C(=O)C1CC(=O)N(c2ccc(CC)cc2)C1)c1c(N)n(CCC)c(=O)[nH]c1=O (centres undefined),inactive,
C/C(NC(=O)c1cccs1)=C1\C(=O)C[C@@H]2[C@H]1C2(C)C,"inconclusive: 18.5 µM [inhibitor, single point]",
COc1ccc(CC(=O)N2CCN(c3ccccc3OC)CC2)cc1OC,"inconclusive: 18.5 µM [inhibitor, single point]",
COC(=O)c1ccc(N2CCN(C)CC2)c(NC(=O)c2cccnc2)c1,"inconclusive: 4.15 µM [inhibitor, partial curve, poor fit]",
CCNCCC(CCC(C)C)c1ccc2c(c1)OCO2 (centres undefined),active: 2.94 µM,
CCc1ccc(NC(=O)CSc2nc(=O)n(CCCN3CCOCC3)c3c2CCCC3)cc1,"inconclusive: 14.7 µM [inhibitor, partial curve, poor fit]",
Cc1nc(CCNC(=O)CC2C(=O)NCCN2Cc2ccccc2)sc1C (centres undefined),"inconclusive: 18.5 µM [inhibitor, single point]",
O=C(NCCCN1CCOCC1)c1ccc(Sc2cccc(Cl)c2)c([N+](=O)[O-])c1,"inconclusive: 0.738 µM [inhibitor, full curve, poor fit]",
O=C(O)c1ccc(/C=C(\c2nc3ccccc3[nH]2)c2nc3ccccc3s2)cc1,inactive,
CCOC(=O)c1cc(-c2ccccc2)sc1NC(=O)c1ccc(OC)cc1,"inconclusive: 4.15 µM [inhibitor, single point]",
COc1ccc(S(=O)(=O)N/N=C\c2ccc3c(c2)OCO3)cc1,inactive,
CC(=O)c1c(C)[nH]c(C(=O)OCC(=O)Nc2ccccc2Cl)c1C,inactive,

SMILES,Potency,"activity change, negative = inhibition"
COc1ccc(NC(=S)N2CCC(C(=O)c3ccc(C)cc3)CC2)cc1,inactive,
Cc1cccc(N2CCN(Cc3cn(C)nc3-c3ccccc3F)CC2)n1,"inconclusive: 0.465 µM [inhibitor, partial curve, poor fit]",
C[C@@H](C(=O)NC1CCCCC1)N1C(=O)N2CCc3c([nH]c4ccccc34)[C@@]2(C)C1=O,"inconclusive: 9.28 µM [inhibitor, single point]",
COc1ccccc1C(=O)n1nc(-c2cccnc2)nc1NCc1ccccc1,,inactive: -37% [at 1.15 µM]
CCOc1ccc(NC(=O)CN2CCN(c3ccccc3C)CC2)cc1S(=O)(=O)N1CCCC1,inactive,
CC(C)n1c(SCC(=O)NCc2ccco2)nc2c1c(=O)n(C)c(=O)n2C,"inconclusive: 4.65 µM [inhibitor, partial curve]",
Cc1ccc([N+](=O)[O-])cc1NC(=O)CN(C)CCOc1ccccc1,"inconclusive: 0.0828 µM [inhibitor, partial curve, poor fit]",
Nc1c(C(=O)Nc2ccc(F)cc2)nnn1-c1cccc(C(F)(F)F)c1,active: 9.28 µM,
CCn1nc(C)c(CN2CCCC(CNS(=O)(=O)c3ccc(OC)cc3)C2)c1C (centres undefined),"inconclusive: 18.5 µM [inhibitor, single point]",
O=C(c1cc([N+](=O)[O-])ccc1N1CCN(S(=O)(=O)c2ccc(Cl)c(Cl)c2)CC1)N1CCOCC1,"inconclusive: 16.5 µM [inhibitor, single point]",
Cc1ccc(C(=O)N/C(=C\c2ccccc2)C(=O)NCCN2CCOCC2)cc1,inactive,
COc1ccc(CCNc2oc(-c3ccco3)nc2C#N)cc1,"inconclusive: 18.5 µM [inhibitor, single point]",
CN(C)CCn1cnc2c1c(=O)n(C)c(=O)n2C,"inconclusive: 18.5 µM [inhibitor, single point]",
COc1cc(NC(=O)c2cc3sccc3n2C)cc(OC)c1,"inconclusive: 18.5 µM [inhibitor, single point]",
c1ccc(Cn2nnc(CNc3ccccc3)c2-c2c(CNc3ccccc3)nnn2Cc2ccccc2)cc1,active: 1.85 µM,
CC1CCCC(NC(=O)c2cccc(S(=O)(=O)N3CCCCC3)c2)C1C (centres undefined),"inconclusive: 9.28 µM [inhibitor, partial curve]",
COc1ccc([C@H]2CC(=O)C=C(C#CC(C)(C)C)C2)cc1,"inconclusive: 8.28 µM [inhibitor, partial curve, poor fit]",
O=[N+]([O-])c1ccc(/C=N/Nc2nc(NCc3ccccc3)nc(N3CCOCC3)n2)cc1,inactive,
COc1cc(OC)cc(C(=O)N[C@H](C(=O)Nc2ccc3c(c2)OCO3)C(C)C)c1,inactive,
O=C(Nc1ccc2[nH]c(=O)[nH]c2c1)c1cccc([N+](=O)[O-])c1,inactive,
Cc1nnc(NC(=O)CSc2ccc3nnc(-c4ccccn4)n3n2)s1,"inconclusive: 9.28 µM [inhibitor, partial curve, poor fit]",
CC(=O)Nc1ccc(C(=O)COC(=O)c2ccco2)c(F)c1,inactive,
O=C(Nc1nc2c(ccc3ccccc32)s1)c1cc([N+](=O)[O-])ccc1N1CCOCC1,"inconclusive: 4.15 µM [inhibitor, single point]",

# Structures from the list above that have an aryl methoxy group:
SMILES,Potency,"activity change, negative = inhibition"
COCCCN1C(=O)C(=O)/C(=C(/O)c2ccc(S(=O)(=O)N3CCCCC3)cc2)C1c1cccc(OC)c1 (centres undefined),"inconclusive: 9.28 µM [inhibitor, partial curve, poor fit]",
COc1ccccc1CNC(=O)COC(=O)C1CCN(S(=O)(=O)c2ccc(C)c(C)c2)CC1,inactive,
COc1ccc(NS(=O)(=O)c2ccc3c(c2)NC(=O)C(C)S3)cc1 (centres undefined),"inconclusive: 18.5 µM [inhibitor, single point]",
COc1cccc(NC(=O)C2CCN(S(=O)(=O)c3ccc4c(c3)CC(C)N4C(C)=O)CC2)c1 (centres undefined),"inconclusive: 14.7 µM [inhibitor, single point]",
COc1cc(NS(=O)(=O)c2ccc3[nH]c(=O)[nH]c3c2)cc(OC)c1,"inconclusive: 13.1 µM [inhibitor, single point]",
COc1ccc(CC(=O)N2CCN(c3ccccc3OC)CC2)cc1OC,"inconclusive: 18.5 µM [inhibitor, single point]",
CCOC(=O)c1cc(-c2ccccc2)sc1NC(=O)c1ccc(OC)cc1,"inconclusive: 4.15 µM [inhibitor, single point]",
COc1ccc(S(=O)(=O)N/N=C\c2ccc3c(c2)OCO3)cc1,inactive,
COc1ccc(NC(=S)N2CCC(C(=O)c3ccc(C)cc3)CC2)cc1,inactive,
COc1ccccc1C(=O)n1nc(-c2cccnc2)nc1NCc1ccccc1,,inactive: -37% [at 1.15 µM]
CCn1nc(C)c(CN2CCCC(CNS(=O)(=O)c3ccc(OC)cc3)C2)c1C (centres undefined),"inconclusive: 18.5 µM [inhibitor, single point]",
COc1ccc(CCNc2oc(-c3ccco3)nc2C#N)cc1,"inconclusive: 18.5 µM [inhibitor, single point]",
COc1cc(NC(=O)c2cc3sccc3n2C)cc(OC)c1,"inconclusive: 18.5 µM [inhibitor, single point]",
COc1ccc([C@H]2CC(=O)C=C(C#CC(C)(C)C)C2)cc1,"inconclusive: 8.28 µM [inhibitor, partial curve, poor fit]",
COc1cc(OC)cc(C(=O)N[C@H](C(=O)Nc2ccc3c(c2)OCO3)C(C)C)c1,inactive,

# The results go on:

SMILES,Potency,"activity change, negative = inhibition"
CCOC(=O)c1cn(-c2nc(-c3ccc(Cl)cc3)cs2)c2c(F)c(N3CC(C)OC(C)C3)c(F)cc2c1=O (centres undefined),"inconclusive: 18.5 µM [inhibitor, single point]",
CN(C(=O)CC1C(=O)NCCN1Cc1cccc(F)c1F)C1CC(C)(C)NC(C)(C)C1 (centres undefined),"inconclusive: 18.5 µM [inhibitor, single point]",
CC(C)N1CCC(N2CCN(Cc3cc4c(cc3Cl)OCO4)CC2CCO)CC1 (centres undefined),"inconclusive: 11.7 µM [inhibitor, single point]",
COc1ccc(OCCn2cnc3ccccc32)cc1,"inconclusive: 2.33 µM [inhibitor, partial curve, poor fit]",
COc1cccc(C(=O)Nc2ccccc2N2CCCC2)c1,inactive,
O=C(Cn1sc2ccccc2c1=O)NC12CC3CC(CC(C3)C1)C2,"inconclusive: 18.5 µM [inhibitor, single point]",
CCOC(=O)CC1C(=O)NCCN1S(=O)(=O)c1ccc(Cl)cc1Cl (centres undefined),"inconclusive: 0.0026 µM [inhibitor, full curve, poor fit]",
O=C(NC(Cc1c[nH]c2ccccc12)C(=O)O)c1cccs1 (centres undefined),inactive,
COC(=O)c1c(NC(C)=O)sc2c1CCCCC2,inactive,
O=S1(=O)N=C(N(CCO)/N=C/c2ccccc2)c2ccccc21,"inconclusive: 0.0074 µM [inhibitor, full curve, poor fit]",
Cc1nn(C)cc1C(C)NC(=O)c1cc(COc2ccc(F)c(F)c2)on1 (centres undefined),"inconclusive: 11.7 µM [inhibitor, single point]",
c1ccc2c(NC3C4CC5CC(C4)CC3C5)nc(N3CCOCC3)nc2c1 (centres undefined),"inconclusive: 18.5 µM [inhibitor, single point]",
O=C(NCc1cc2ccccc2[nH]1)C1CCC(=O)N(CCCN2CCCC2=O)C1 (centres undefined),active: 10.4 µM,
CC1CCC(NC(=O)C2CCC(CNS(=O)(=O)c3ccccc3)CC2)CC1 (centres undefined),inactive,
Cc1cc(/C=N/O)c(C)n1-c1ccc(Br)cc1,"inconclusive: 11.7 µM [inhibitor, partial curve]",
CC(=O)c1ccc(NC(=O)C2CCN(S(=O)(=O)c3cccc4cccnc34)CC2)cc1,"inconclusive: 0.0117 µM [inhibitor, full curve]",
Cc1ccc(-c2ccc(/C=C(\C#N)C(N)=S)n2C)cc1,"inconclusive: 8.28 µM [inhibitor, single point]",
Cc1cnc(NC(=O)CSc2nnc(-c3ccccc3)o2)s1,inactive,
COc1cc(/C=C2\SC(=Nc3ccccc3)N(CCc3c[nH]c4ccccc34)C2=O)ccc1OC(C)C(=O)O (centres undefined),active: 5.22 µM,
COc1cc(C(=O)OCC(=O)NC(C)CCc2ccccc2)cc(OC)c1OC (centres undefined),inactive,
COc1ccccc1NC(=S)NCCc1ccc(OC)c(OC)c1,active: 4.65 µM,
CCc1ccc(C(=O)NC(CCSC)C(=O)OC)cc1 (centres undefined),inactive,
COCCN(CC(=O)Nc1ccccc1C(F)(F)F)C(=O)/C=C/c1ccc2ccccc2n1,active: 14.7 µM,
